# Assay results taken from paper PMC13170367.
# No constants are given. Whether binding was seen depends on the method and setting. A result given as binding can be weak or reduced; the word gives no strength. Sequences can lack the tags named with a protein.
# B1: Ptp61F (Drosophila ORFeome activation-domain fusion) (protein, UniProt Q9W0G1 1-548)
# chain: MSEQKTSGSGSAAAARLQIEAEYKDKGPQWHRFYKEICETCDREAKEKQFSTSESERHTNRGLNRYRDVNPYDHSRIVLKRGSVDYINANLVQLERAERQYILTQGPLVDTVGHFWLMVWEQKSRAVLMLNKLMEKKQIKCHLYWPNEMGADKALKLPHVKLTVELVRLETYQNFVRRWFKLTDLETQQSREVMQFHYTTWPDFGIPSSPNAFLKFLQQVRDSGCLSRDVGPAVVHCSAGIGRSGTFCLVDCCLVLIDKYGECNVSKVLCELRSYRMGLIQTADQLDFSYQAIIEGIKKLHDPTFLDAEEPLISNDTETHTLDELPPPLPPRVQSLNLPLAPNSGGILSLNMRAAQANGAESIGKELSKDALNNFINQHDMIHDAEVADSRPLPPLPVRAFNDSDSDEDYLLDDDDEDDTDEDEEYETINEHDADPVNGHVPATTQPHADDVNANNEKPAVPVDEQHKANGIDPIPGQLPASPENELKRRKRNEYQASLEQKVNDMKRKQRENEDKQLAAKKRRSLLTYIAAGVVVGVICAYAYTKLG
# Molecular target: WARP754 (WD_0754) ankyrin repeat region fused to the GAL4 DNA-binding domain (Wolbachia pipientis wMel)
# Assay: two-hybrid; GAL4 DB-ankyrin fusions (pDest-DB-cen, yeast Y8930) mated to AD-Drosophila ORF strains (Y8800); primary screen with the pooled DB strains, secondary screen against the separated DB strains; HIS3 reporter, growth on media lacking histidine with 1 mM 3AT, 30°C, 72-96 h
binder,measurement,value
B1,binding,binds
